Values of other authors, collected in patent US4703061A, “Gamma-aminobutyric acid derivatives, process for production thereof, and use thereof as medicaments” (priority 1984, dated 1987).
For at least one compound, name, drawing or mass did not settle the structure.

Experiments:
[1] = test system: mice; details: intraperitoneal; cited from earlier work
[2] = test system: mice; details: intraperitoneal; cited from earlier work; remark: listed apart in the source

Row | SMILES | anticonvulsive activity [1] | sleeping time [2]
1 | O=C(O)CCCNC(=O)c1cccnc1 [nicotinoyl gamma-aminobutyric acid] | mild anticonvulsive activity | marked prolongation of the sleeping time
2 | O=C(O)CCCNC(=O)c1ccncc1 [isonicotinoyl gamma-aminobutyric acid] | mild anticonvulsive activity | marked prolongation of the sleeping time
